B1: glmS ribozyme (parent)
chain: AUAAAAGCGCCAGAACUACAGAAAUGUAGUUGACGAGGAGGAGGUUUAUCGAAUUUUCGGCGGAUGCCUCCAAA

± gives the standard error. Many entries were measured with a wide error.

The results in this text go back to the supplement of paper PMC7125110.

A word on the kcat: it is the number of substrate molecules converted per active site and unit of time at saturation. A word on the KM: it is the concentration of substrate that gives half-maximal velocity.

In one series the parent is B1. Put plainly: kcat; higher = faster cleavage; RNA array. The settings on record: with glucosamine-6-phosphate. In a few lines: (§1)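 kobs was derived by fitting per-tile medians to one- or two-exponential decays after normalising signals to baseline and to non-cleaving reference variants. Those signals came from barcoded ribozyme variants transcribed in situ by E. coli RNA polymerase on sequenced MiSeq chips, followed through a hybridised Cy3 probe at 37 °C and imaged over ~14 h. Glucosamine-6-phosphate (40 μM to 10 mM) in HEPES/KCl/Mg(OAc)2 buffer was flowed in. Weighted Michaelis–Menten fits across concentrations then gave kcat and KM.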
Consider A42G A64G C71G, for which the kcat came out at 0.00118 ± 0.001 s⁻¹.

Take U46G A48G: the kcat was 7.99e-05 ± 1e-06 s⁻¹.

On to C16U A39U, for which the kcat amounted to 0.0586 ± 0.022 s⁻¹.

As to G13U G40A, the kcat was found to be 9.73e-05 ± 5.4e-05 s⁻¹.

With A14G U31A, the kcat came out at 0.023 ± 0.021 s⁻¹.

Regarding U56G U69C, the catalytic constant (kcat) came to 0.00124 ± 0.0008 s⁻¹.

For U30C G38C, the turnover number (kcat) is less than 1e-05 s⁻¹.

With G63U C68A, the kcat was 1.22e-05 ± 2.6e-06 s⁻¹.

Consider G37A U47C, for which the turnover number (kcat) is 0.000634 ± 0.00022 s⁻¹.

In the case of G37A A39U, the kcat is 0.00167 ± 0.00028 s⁻¹.

As for G7U U69A, the kcat worked out at 3.25e-05 ± 3.2e-05 s⁻¹.

U31G U49G: the kcat was found to be 0.000191 ± 2.6e-06 s⁻¹.

In the case of A6U C16A, the kcat amounted to 1.85e-05 ± 5.8e-06 s⁻¹.

Consider C16U, for which the kcat is 0.0542 ± 0.005 s⁻¹.

In the case of A14G C70G, the kcat turned out to be 0.000878 ± 0.00049 s⁻¹.

As to C34A A48G U54C G66U C68G, the kcat was found to be 2.22e-05 ± 2.1e-05 s⁻¹.

G43A U55A: the kcat was 0.00026 ± 7.6e-05 s⁻¹.

Turning to U54C C71A, the catalytic constant (kcat) worked out at 0.00379 ± 0.00088 s⁻¹.

For U54C C71G, the kcat was found to be 0.00083 ± 0.00027 s⁻¹.

Turning to U30C C50U C70G, the kcat was 0.00011 ± 6.2e-05 s⁻¹.

C11A A12U U45G U55A C70U: the kcat came out at 0.00104 ± 0.00013 s⁻¹.

With A12C G13A, the kcat was determined as 0.000473 ± 0.00016 s⁻¹.

With G7U G38C, the kcat is less than 1e-05 s⁻¹.

For U55A C68U, the turnover number (kcat) was determined as 0.00418 ± 0.0033 s⁻¹.

With A1C, the kcat was 0.0216 ± 0.011 s⁻¹.

Regarding A12C A15G, the kcat was determined as 0.016 ± 0.0031 s⁻¹.

Regarding A12C C16U U57A, the kcat is 0.000707 ± 0.00036 s⁻¹.

For A12U C68U, the kcat turned out to be 0.00908 ± 0.005 s⁻¹.

As for A14G G32A G38U, the turnover number (kcat) was less than 1e-05 s⁻¹.

Turning to G29U U55G, the catalytic constant (kcat) is 0.00411 ± 0.0023 s⁻¹.

As to A6G A15U U56G U69G, the kcat was 0.000107 ± 6.6e-05 s⁻¹.

Regarding A53U C70U, the kcat stood at 0.00457 ± 0.004 s⁻¹.

Take C11U G37C: the catalytic constant (kcat) was found to be 1.18e-05 ± 3.2e-06 s⁻¹.

Turning to U46A G66A, the catalytic constant (kcat) was determined as 0.000792 ± 5.9e-05 s⁻¹.

For U55A C70G, the kcat was 0.000118 ± 1.5e-05 s⁻¹.

As for A42G C71A, the kcat came to 0.00565 ± 0.003 s⁻¹.

On to C50U G59U, for which the kcat is less than 1e-05 s⁻¹.

Turning to A15C U65A, the kcat was found to be 0.000715 ± 0.00038 s⁻¹.

In the case of U54C A64U, the turnover number (kcat) worked out at 7.19e-05 ± 1e-05 s⁻¹.

Regarding A33C G37U G38A, the kcat turned out to be 1.54e-05 ± 8.3e-06 s⁻¹.

As for A42C U69A, the kcat stood at 0.000329 ± 0.00019 s⁻¹.

As for G51C C68A, the catalytic constant (kcat) was less than 1e-05 s⁻¹.

U49G U69A: the kcat came to 4.14e-05 ± 1.7e-05 s⁻¹.

With A14G U30A, the kcat stood at 0.0235 ± 0.016 s⁻¹.

As for A12C G62U C70G, the kcat was determined as 2.02e-05 ± 4.5e-06 s⁻¹.

With C11G A33U, the kcat was less than 1e-05 s⁻¹.

Take A12U A33U C67U: the kcat was found to be 0.000242 ± 4.7e-05 s⁻¹.

C50U A52G: the turnover number (kcat) was 1.11e-05 ± 2.8e-06 s⁻¹.

Variants of B1 are the subject of a further series. Put plainly: self-cleavage kobs at 160 uM GlcN6P; higher = faster cleavage; RNA array. The settings on record: with glucosamine-6-phosphate. In a few lines:
as §1
As for A42G A64G C71G, the “self-cleavage kobs at 160 uM GlcN6P” value was determined as 3.57e-05 ± 2e-05 s⁻¹.

A12C G13A: the “self-cleavage kobs at 160 uM GlcN6P” value came to 4.27e-05 ± 2.8e-05 s⁻¹.

For the variant U46A G66A, the “self-cleavage kobs at 160 uM GlcN6P” value was found to be 4.24e-05 ± 2.5e-05 s⁻¹.

As to A6U A15G U30C, the “self-cleavage kobs at 160 uM GlcN6P” value worked out at 2.59e-05 ± 1.9e-05 s⁻¹.

Variants of B1 are the subject of the next series. Put plainly: KM; higher = weaker cofactor use; RNA array. The settings on record: with glucosamine-6-phosphate. A digest of the protocol: as §1
In the case of U46G A48G, the KM turned out to be 1250 ± 69 µM.

Turning to G7C A53G, the KM amounted to 89 ± 48 µM.

As for C16U A39U, the KM worked out at 9390 ± 4200 µM.

In the case of A6U U55G, the KM came to 23900 ± 14000 µM.

A12G A53G: the KM came to 4470 ± 620 µM.

On to U56G U69C, for which the KM is 469 ± 450 µM.

Turning to A6U C67G, the KM came out at 285 ± 210 µM.

For G37A U47C, the KM is 1380 ± 810 µM.

As for G37A A39U, the KM was 3280 ± 870 µM.

Take C10U A33U: the KM was determined as 690 ± 480 µM.

As to U31G U49G, the KM came out at 2140 ± 89 µM.

Turning to A6U C16U, the KM came out at 1970 ± 520 µM.

For the variant C16U, the KM amounted to 2230 ± 230 µM.

Regarding A14G C70G, the KM amounted to 448 ± 340 µM.

Turning to G43A U55A, the KM was determined as 21600 ± 9100 µM.

As for U54C C71A, the KM amounted to 1580 ± 530 µM.

With U54C C71G, the KM stood at 1320 ± 990 µM.

On to C11A A12U U45G U55A C70U, for which the KM is 32400 ± 5100 µM.

For the variant A12C G13A, the KM stood at 3410 ± 1800 µM.

For A1C, the Michaelis-Menten constant (KM) is 708 ± 500 µM.

Consider A12C A15G, for which the KM turned out to be 2400 ± 600 µM.

Consider A12C C16U U57A, for which the KM was found to be 35300 ± 21000 µM.

With A12U C68U, the KM came out at 1540 ± 1100 µM.

For the variant A6C U56A, the Michaelis constant (KM) amounted to 2410 ± 2300 µM.

Consider G29U U55G, for which the KM came out at 6600 ± 5400 µM.

With A6G U47G, the KM stood at 1400 ± 520 µM.

U46A G66A: the KM came to 2830 ± 440 µM.

As for U55A C70G, the KM was 63.5 ± 36 µM.

Turning to A42G C71A, the KM worked out at 1010 ± 810 µM.

In the case of C50U G59U, the KM is 71.2 ± 32 µM.

On to A15C U65A, for which the KM was 2760 ± 2300 µM.

As for G9A G13U, the KM stood at 36.7 ± 31 µM.

Take U54C A64U: the Michaelis-Menten constant (KM) was 984 ± 610 µM.

As for A6U A15G U30C, the KM stood at 2730 ± 1400 µM.

Turning to C11U U55G C70G, the KM was 128 ± 81 µM.

For A12C U31G, the KM was 2340 ± 410 µM.

In the case of C11G G35A, the KM turned out to be 151 ± 150 µM.

With A14G U30A, the KM came out at 2240 ± 1900 µM.

For the variant A12C U65A, the Michaelis-Menten constant (KM) worked out at 2790 ± 570 µM.

Turning to A12C C34A, the Michaelis-Menten constant (KM) amounted to 389 ± 270 µM.

Take A12U A33U C67U: the KM was 6520 ± 2600 µM.

The variants in the next series derive from B1. Put plainly: self-cleavage kobs at 640 uM GlcN6P; higher = faster cleavage; RNA array. The settings on record: with glucosamine-6-phosphate. A digest of the protocol: as §1
For U46G A48G, the “self-cleavage kobs at 640 uM GlcN6P” value was determined as 2.63e-05 ± 1.6e-05 s⁻¹.

U49G U69A: the “self-cleavage kobs at 640 uM GlcN6P” value stood at 4.02e-05 ± 2.4e-05 s⁻¹.

For A12C G62U C70G, the “self-cleavage kobs at 640 uM GlcN6P” value was found to be 2.53e-05 ± 2.5e-05 s⁻¹.

As to A12U A33U C67U, the “self-cleavage kobs at 640 uM GlcN6P” value is 2.15e-05 ± 1.2e-05 s⁻¹.

Variants of B1 are the subject of a further series. Put plainly: self-cleavage kobs at 40 uM GlcN6P; higher = faster cleavage; RNA array. As to conditions: with glucosamine-6-phosphate. In a few lines: as §1
Turning to A12G A53G, the “self-cleavage kobs at 40 uM GlcN6P” value was 1.26e-05 ± 1e-05 s⁻¹.

In the case of G37A A39U, the “self-cleavage kobs at 40 uM GlcN6P” value worked out at 2.15e-05 ± 1.3e-05 s⁻¹.

Turning to U54C C71G, the “self-cleavage kobs at 40 uM GlcN6P” value came to 2.07e-05 ± 1.4e-05 s⁻¹.

In the case of A42C U69A, the “self-cleavage kobs at 40 uM GlcN6P” value was determined as 2.42e-05 ± 1.6e-05 s⁻¹.

Variants of B1 are the subject of another series. Put plainly: self-cleavage kobs at 10000 uM GlcN6P; higher = faster cleavage; RNA array. As to conditions: with glucosamine-6-phosphate. A digest of the protocol: as §1
As for G7U U69A, the “self-cleavage kobs at 10000 uM GlcN6P” value amounted to 0.000401 ± 0.00039 s⁻¹.

Consider U49G U69A, for which the “self-cleavage kobs at 10000 uM GlcN6P” value worked out at 2.18e-05 ± 1.5e-05 s⁻¹.

A further series covers variants of B1. Put plainly: self-cleavage kobs at 2500 uM GlcN6P; higher = faster cleavage; RNA array. As to conditions: with glucosamine-6-phosphate. In a few lines:
as §1
Consider A6U C16A, for which the “self-cleavage kobs at 2500 uM GlcN6P” value is 2.09e-05 ± 1.9e-05 s⁻¹.

As for G43A U55A, the “self-cleavage kobs at 2500 uM GlcN6P” value is 3.01e-05 ± 3e-05 s⁻¹.

Turning to A6C U56A, the “self-cleavage kobs at 2500 uM GlcN6P” value came out at 1.58e-05 ± 1.5e-05 s⁻¹.

Consider A6G A15U U56G U69G, for which the “self-cleavage kobs at 2500 uM GlcN6P” value is 6.68e-05 ± 4.5e-05 s⁻¹.

Consider C11U U55G C70G, for which the “self-cleavage kobs at 2500 uM GlcN6P” value was 0.000141 ± 7.1e-05 s⁻¹.
